Reference: ChEMBL document CHEMBL3751755, “Developing steroidal aromatase inhibitors-an effective armament to win the battle against breast cancer” (Eur J Med Chem, 2015)

Assays:
Aromatase [1] = molecular target: T1, Aromatase (Homo sapiens, UniProt P11511); test: Competitive inhibition of human aromatase extracted from placental microsomes by Dixon plot analysis in presence of [1beta-3H]AD
T1 sequence (P11511 whole entry): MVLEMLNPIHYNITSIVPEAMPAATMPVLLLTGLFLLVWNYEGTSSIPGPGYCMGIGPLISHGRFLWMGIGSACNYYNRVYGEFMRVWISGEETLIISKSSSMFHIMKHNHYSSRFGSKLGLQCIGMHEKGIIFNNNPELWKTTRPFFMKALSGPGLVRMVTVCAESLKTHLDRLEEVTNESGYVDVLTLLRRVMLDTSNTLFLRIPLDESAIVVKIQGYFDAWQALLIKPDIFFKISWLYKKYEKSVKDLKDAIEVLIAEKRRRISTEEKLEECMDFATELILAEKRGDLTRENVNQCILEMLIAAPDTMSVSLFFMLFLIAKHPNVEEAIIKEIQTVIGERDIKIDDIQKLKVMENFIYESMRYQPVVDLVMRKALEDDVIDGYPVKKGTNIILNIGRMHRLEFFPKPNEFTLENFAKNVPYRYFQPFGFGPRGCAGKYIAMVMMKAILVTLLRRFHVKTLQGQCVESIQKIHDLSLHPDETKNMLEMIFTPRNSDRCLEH

Aromatase [2] = molecular target: T1, Aromatase

Q: How did the Ki (Aromatase [1]) turn out when `C[C@]12C[C@@H](F)C(=O)C=C1CC[C@@H]1[C@@H]2CC[C@]2(C)C(=O)CC[C@@H]12` was run?
A: The Ki was 45 nM.

Q: `C[C@]12CC[C@H]3[C@@H](C[C@H]4OC[C@@]35CCC(=O)C=C45)[C@@H]1CCC2=O` was tested. Which Ki (Aromatase [2]) did it give?
A: The Ki was 2200 nM.
